Data on one substance can be found in PMC9811620.

Sequences of proteins named here, by UniProt entry; tags and fusion partners are left off.
UniProt Q9JKF1: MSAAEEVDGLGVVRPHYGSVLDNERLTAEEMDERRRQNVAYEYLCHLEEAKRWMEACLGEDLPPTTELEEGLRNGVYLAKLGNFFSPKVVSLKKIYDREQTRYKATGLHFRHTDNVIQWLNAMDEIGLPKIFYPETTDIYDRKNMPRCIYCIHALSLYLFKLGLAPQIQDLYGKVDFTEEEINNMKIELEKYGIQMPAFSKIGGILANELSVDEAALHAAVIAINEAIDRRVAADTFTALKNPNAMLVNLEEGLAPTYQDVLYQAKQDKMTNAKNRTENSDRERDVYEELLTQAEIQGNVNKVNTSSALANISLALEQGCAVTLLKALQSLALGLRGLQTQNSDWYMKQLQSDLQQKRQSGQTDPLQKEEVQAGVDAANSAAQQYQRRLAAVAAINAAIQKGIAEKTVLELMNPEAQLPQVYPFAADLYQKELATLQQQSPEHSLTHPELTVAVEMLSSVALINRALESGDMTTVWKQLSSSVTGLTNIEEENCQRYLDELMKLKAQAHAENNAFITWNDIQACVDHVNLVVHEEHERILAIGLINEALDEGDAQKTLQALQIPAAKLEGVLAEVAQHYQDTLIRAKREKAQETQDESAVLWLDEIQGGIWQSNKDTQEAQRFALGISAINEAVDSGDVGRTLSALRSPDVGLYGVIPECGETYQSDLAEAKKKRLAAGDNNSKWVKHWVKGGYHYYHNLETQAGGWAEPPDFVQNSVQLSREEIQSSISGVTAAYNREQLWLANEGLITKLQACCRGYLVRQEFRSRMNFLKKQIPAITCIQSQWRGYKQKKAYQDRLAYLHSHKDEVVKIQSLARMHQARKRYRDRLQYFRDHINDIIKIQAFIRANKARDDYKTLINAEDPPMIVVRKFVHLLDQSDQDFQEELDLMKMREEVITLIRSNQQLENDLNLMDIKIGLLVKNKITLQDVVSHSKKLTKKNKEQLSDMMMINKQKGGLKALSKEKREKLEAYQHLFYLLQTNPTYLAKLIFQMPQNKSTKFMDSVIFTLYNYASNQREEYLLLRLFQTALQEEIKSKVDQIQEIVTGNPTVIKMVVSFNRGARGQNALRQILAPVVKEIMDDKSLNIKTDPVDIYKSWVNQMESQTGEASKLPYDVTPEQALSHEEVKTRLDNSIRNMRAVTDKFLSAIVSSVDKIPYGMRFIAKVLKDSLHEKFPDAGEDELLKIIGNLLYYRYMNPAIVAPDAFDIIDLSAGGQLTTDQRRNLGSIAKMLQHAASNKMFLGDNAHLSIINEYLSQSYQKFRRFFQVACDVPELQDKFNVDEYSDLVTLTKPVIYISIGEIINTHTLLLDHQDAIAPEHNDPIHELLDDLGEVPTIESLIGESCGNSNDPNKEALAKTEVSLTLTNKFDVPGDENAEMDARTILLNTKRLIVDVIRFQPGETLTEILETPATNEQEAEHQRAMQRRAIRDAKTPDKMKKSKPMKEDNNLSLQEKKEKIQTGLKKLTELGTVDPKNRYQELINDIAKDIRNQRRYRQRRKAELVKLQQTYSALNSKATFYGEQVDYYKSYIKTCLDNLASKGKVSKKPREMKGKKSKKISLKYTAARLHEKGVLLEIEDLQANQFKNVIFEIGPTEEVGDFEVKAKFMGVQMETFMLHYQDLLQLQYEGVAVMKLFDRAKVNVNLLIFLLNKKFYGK

No constants are given. Whether binding was seen depends on the method and setting. Binding seen in cells or lysates may run through a third protein. These calls come from enrichment with a bait or labelling near it, and not all partners need be listed.

The target in this assay is T1, Gasdermin D (GSDMD), endogenous in YAMC cells (mouse (endogenous in YAMC)) (UniProt Q9D8T2).
T1 sequence: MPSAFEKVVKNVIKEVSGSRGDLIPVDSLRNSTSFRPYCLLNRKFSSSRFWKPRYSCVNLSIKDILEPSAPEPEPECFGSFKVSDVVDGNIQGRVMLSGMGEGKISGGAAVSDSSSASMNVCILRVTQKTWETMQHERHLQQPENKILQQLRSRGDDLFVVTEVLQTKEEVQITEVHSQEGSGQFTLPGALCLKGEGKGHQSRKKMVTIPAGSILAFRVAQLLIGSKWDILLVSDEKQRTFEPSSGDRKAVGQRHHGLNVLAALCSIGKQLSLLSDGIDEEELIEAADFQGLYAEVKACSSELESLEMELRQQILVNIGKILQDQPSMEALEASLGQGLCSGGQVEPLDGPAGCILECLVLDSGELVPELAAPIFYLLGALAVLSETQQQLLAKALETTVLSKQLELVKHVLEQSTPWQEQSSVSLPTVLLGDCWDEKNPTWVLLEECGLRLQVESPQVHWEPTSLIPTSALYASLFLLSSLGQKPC
In words: affinity purification with mass spectrometry; immunoprecipitation of GSDMD from lysates of LPS-stimulated YAMCs, control IgG alongside, SDS-PAGE, in-gel trypsin digestion, LC-MS/MS, label-free spectral counting.

In the case of “Ras GTPase-activating-like protein IQGAP1, endogenous in YAMC cells (from UniProt Q9JKF1 1-1657)”, the binding result is given as “binds”.
